Test [1] concerns the target human anterior pharynx-defective protein 1 aL with HA tag (hAPH1aL-HA) (human) (UniProt Q96BI3). Nature of the test: co-IP; 100 µg microsomal protein extract of γ-MEF clones in 1% CHAPSO-HEPES buffer, anti-Flag M2 (Flag-PEN2) or anti-HA (APH1aL-HA) affinity beads overnight at 4°C, washed in 0.2% CHAPSO-HEPES; immunoblot for NCT, PS1-NTF, PEN2.
For test [2] the target is unchanged. Description: co-IP; three sequential affinity purifications from CHAPSO-solubilised membranes: anti-Flag M2 (Flag peptide elution), anti-V5 (V5 peptide elution), anti-HA (HA peptide elution), in 0.1% digitonin-TBS at 4°C; purified complexes analysed by SDS-PAGE and immunoblot for NCT, PS1-NTF, PS1-CTF, HA, Flag. In general terms: A western blot detects proteins with antibodies after separation by electrophoresis.

By UniProt entry, the sequences of proteins in these tests, tags left out. Residues count along the entry.
UniProt Q96BI3: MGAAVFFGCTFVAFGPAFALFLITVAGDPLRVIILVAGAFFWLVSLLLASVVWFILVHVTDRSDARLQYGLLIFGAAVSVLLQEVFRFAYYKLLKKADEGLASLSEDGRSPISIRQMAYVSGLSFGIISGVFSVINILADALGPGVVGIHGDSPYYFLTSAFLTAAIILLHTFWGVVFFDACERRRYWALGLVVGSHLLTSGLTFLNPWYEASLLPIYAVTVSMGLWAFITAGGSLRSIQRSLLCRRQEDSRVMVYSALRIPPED
UniProt Q92542, residues 34-709: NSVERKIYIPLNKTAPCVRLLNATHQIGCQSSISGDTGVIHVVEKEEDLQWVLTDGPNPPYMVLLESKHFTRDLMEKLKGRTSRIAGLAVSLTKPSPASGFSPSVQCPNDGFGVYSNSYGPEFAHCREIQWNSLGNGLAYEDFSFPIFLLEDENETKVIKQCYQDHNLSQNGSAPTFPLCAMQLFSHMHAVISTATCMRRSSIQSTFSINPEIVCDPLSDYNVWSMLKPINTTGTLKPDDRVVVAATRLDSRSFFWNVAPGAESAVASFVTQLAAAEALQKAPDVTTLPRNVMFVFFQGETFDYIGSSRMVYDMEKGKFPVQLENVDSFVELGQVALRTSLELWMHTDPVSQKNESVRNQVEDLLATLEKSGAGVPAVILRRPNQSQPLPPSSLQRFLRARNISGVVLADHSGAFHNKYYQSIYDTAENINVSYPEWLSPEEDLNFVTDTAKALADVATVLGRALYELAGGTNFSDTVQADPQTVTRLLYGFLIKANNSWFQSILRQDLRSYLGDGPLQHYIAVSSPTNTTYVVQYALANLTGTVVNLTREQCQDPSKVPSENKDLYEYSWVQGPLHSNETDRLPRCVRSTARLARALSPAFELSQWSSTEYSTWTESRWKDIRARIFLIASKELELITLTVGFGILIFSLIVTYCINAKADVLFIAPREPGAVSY

2 substances from publication PMC3329438 can be followed below.

Results are given in words; binding and its absence hold for the method and conditions named. In cells and extracts the contact can be indirect. Some binding calls cover weakened binding; strength is not graded here.

For the substance “human nicastrin with V5 tag (hNCT-V5) (from UniProt Q92542 34-709)”, the binding entry in test [1] and in test [2] was “binds” throughout.
In the case of “human presenilin enhancer 2 with Flag tag (Flag-hPEN2) (from UniProt Q9NZ42 1-101)”, the binding entry in test [1] and in test [2] was “binds” each time.
